From publication PMC11014961 come the findings set out here.

No constants are given. Whether binding was seen depends on the method and setting. Binding can be weak; no strength is given. For some of these results: Where a sequence is shown, tags or fusion partners need not be part of it. For some of these results: Binding seen in cells or lysates may run through a third protein.

In assay [1] the target is T1, phosphorylated H2A.X C-terminal peptide (biotin-…pQEF-OH) (Arabidopsis thaliana).
T1 sequence (peptide, biotin on the N-terminus; phosphoserine (Sp in SASpQEF)): PSKVGKNKGDIGSASQEF
As to the kind of experiment: pull-down; biotinylated H2A.X peptides (25 µg) on Dynabeads MyOne Streptavidin T1; purified proteins added in 50 mM Tris-HCl pH 7.5, 150 mM NaCl, 0.05% NP-40 with PhosStop, 4 °C, 2 h; SDS-PAGE, Coomassie blue; both purified.

Assay [2] addresses GST-tagged SQ/DWD motifs of BCP4 (Arabidopsis thaliana). Kind of assay: pull-down; co-purification: His6-NBS1 forms and GST fusions co-expressed in E. coli; extract in TBS, 0.1% Triton X-100, 1 mM DTT on magnetic glutathione beads, RT, 1 h; western blot with anti-His and anti-GST.
For assay [3], the target named is GST-tagged deletion 4 of BCP4 SQ/DWD motif (Arabidopsis thaliana). Described as above.
The target of assay [4] is GST-tagged SQ/DWD motifs of BCP4 (Arabidopsis thaliana). Kind of assay: pull-down; independently purified proteins: GST-tagged proteins (5 µg) on magnetic glutathione beads, then 5 µg His6-NBS1, 90 min, RT; 20 mM Tris-HCl pH 7.5, 150 mM NaCl, 1 mM DTT, 0.1% Triton X-100; western blot with anti-His; both purified.

As to “C-terminally His6-tagged BCP4 (Arabidopsis thaliana)”, the binding entry in assay [1] was “binds”. On to “GST-tBRCT domain of BCP4, mutant BCP4M1 (Arabidopsis thaliana) (domain or fragment)”, for which, in assay [1], the binding entry is on record as “binds”. For “GST-tBRCT domain of BCP4, mutant BCP4M2 (Arabidopsis thaliana) (domain or fragment)”, the binding entry in assay [1] is listed as “binds”. On the same count and under the same terms, to “GST-tBRCT domain of BCP4, mutant BCP4M3 (Arabidopsis thaliana) (domain or fragment)” belongs “binds”; to “GST-tBRCT domain of BCP4, mutant BCP4M4 (Arabidopsis thaliana) (domain or fragment)”, “binds”. For “GST-tBRCT domain of BCP4, mutant BCP4M5 (Arabidopsis thaliana) (domain or fragment)”, the binding result in assay [1] is “binds weakly”. On to “GST-tagged C-terminal tBRCT domain of BCP1 (Arabidopsis thaliana) (domain or fragment)”, for which, in assay [1], the binding result is “no binding”. Turning to “GST-tagged N-terminal tBRCT domain of BCP1 (Arabidopsis thaliana) (domain or fragment)”, the binding entry in assay [1] is on record as “no binding”. On to “GST-tagged tBRCT domain of BCP4 (Arabidopsis thaliana) (domain or fragment)”, for which, in assay [1], the binding entry is listed as “binds”. Consider “N-terminally His6-tagged BCP4 (Arabidopsis thaliana)”, for which, in assay [1], the binding entry is given as “binds”.

B1: His-tagged full-length NBS1 (protein, UniProt Q0H8D7 1-542)
chain: MVWGLFPVDPLSGEDKYYIFSKGIYKVGRKGCDIIINKDKGVSRIHAELTFDATTVSTSRRNKSSSDTSSFVIRVKDCSKYGTFVKTDLGTKDKVHELSNKEKILQDGDVIAFGTGSAIYRLSLIPLVFYLCPSSETFKVDQPVQDAVSSIGARISPTLSEECTHVLLEPRMQVNEALINAILAKKTIILTNWVMLLAEKSICSEIPGYSQYRPSVMVEEALVDVLELNVREKCLEGFTFVLEPTDTYRFGCSFPSLLEVCGAETVTIEDISSMSQDSQFGEINRMICVIPKSAGDKFGRFKHLSLLSRVNEMDLVCAVFSGNLPSTSLIPPSVVISSSCSTDETVVADSEAEEEETTSSVHMIDATEKAETPEKPAAIVIEDSPVTILEETSNLNEFKSVNLLADTESRGHMDEKNSSDSVTIRRDRNDEAETGKSEIIYTQDLIVRDLRSTRKVQSTGGEGVVDFKRFRKGNVTCGNSFSSLIPFAKDPYKEYDSWDVTDFMKEEKKRKQMEAIAEDLFKTEKARKRGTAGSIRGFLSGS
For the molecule B1, the binding result in assay [2], in assay [3] and in assay [4] was “binds” in each case.
